In the supplement of paper PMC10849652:
This is one part of the list.

Amino acid sequences for entries named in this document (tags omitted). A change or cut given only in a name is not applied to a line headed by its entry.
UniProt Q9UFN0: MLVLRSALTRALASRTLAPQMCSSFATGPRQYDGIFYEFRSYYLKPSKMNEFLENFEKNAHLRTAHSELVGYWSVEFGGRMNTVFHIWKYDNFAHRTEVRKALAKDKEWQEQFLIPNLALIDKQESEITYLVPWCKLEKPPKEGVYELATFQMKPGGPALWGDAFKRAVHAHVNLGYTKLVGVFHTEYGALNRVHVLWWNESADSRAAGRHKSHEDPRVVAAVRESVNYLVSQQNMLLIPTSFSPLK
UniProt Q9UN36: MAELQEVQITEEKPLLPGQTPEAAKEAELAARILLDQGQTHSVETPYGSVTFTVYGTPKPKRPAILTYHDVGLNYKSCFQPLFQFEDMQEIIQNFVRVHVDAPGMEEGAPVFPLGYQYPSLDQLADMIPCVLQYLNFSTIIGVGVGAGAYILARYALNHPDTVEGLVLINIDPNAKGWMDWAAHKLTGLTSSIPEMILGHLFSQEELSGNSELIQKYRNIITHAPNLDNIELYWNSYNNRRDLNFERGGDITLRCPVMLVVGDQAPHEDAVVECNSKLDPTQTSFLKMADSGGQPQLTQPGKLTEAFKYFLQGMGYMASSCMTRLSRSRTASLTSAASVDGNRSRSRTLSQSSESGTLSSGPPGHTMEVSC
UniProt Q9UGV2: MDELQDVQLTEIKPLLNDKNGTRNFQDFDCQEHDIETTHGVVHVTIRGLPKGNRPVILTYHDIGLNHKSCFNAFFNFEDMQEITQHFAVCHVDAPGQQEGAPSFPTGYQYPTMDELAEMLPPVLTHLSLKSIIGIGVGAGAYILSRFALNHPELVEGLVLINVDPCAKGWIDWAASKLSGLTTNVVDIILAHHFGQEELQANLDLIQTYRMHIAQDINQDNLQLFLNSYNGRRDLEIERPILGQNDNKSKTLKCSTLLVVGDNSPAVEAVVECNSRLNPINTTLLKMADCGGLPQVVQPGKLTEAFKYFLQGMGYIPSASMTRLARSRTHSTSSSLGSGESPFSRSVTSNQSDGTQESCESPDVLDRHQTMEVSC
UniProt Q86Y39, whole entry, looked up: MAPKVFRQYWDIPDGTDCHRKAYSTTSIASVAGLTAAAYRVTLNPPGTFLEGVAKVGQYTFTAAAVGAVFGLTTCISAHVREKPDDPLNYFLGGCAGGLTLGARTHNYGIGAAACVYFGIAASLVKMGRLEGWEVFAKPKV
UniProt Q14934: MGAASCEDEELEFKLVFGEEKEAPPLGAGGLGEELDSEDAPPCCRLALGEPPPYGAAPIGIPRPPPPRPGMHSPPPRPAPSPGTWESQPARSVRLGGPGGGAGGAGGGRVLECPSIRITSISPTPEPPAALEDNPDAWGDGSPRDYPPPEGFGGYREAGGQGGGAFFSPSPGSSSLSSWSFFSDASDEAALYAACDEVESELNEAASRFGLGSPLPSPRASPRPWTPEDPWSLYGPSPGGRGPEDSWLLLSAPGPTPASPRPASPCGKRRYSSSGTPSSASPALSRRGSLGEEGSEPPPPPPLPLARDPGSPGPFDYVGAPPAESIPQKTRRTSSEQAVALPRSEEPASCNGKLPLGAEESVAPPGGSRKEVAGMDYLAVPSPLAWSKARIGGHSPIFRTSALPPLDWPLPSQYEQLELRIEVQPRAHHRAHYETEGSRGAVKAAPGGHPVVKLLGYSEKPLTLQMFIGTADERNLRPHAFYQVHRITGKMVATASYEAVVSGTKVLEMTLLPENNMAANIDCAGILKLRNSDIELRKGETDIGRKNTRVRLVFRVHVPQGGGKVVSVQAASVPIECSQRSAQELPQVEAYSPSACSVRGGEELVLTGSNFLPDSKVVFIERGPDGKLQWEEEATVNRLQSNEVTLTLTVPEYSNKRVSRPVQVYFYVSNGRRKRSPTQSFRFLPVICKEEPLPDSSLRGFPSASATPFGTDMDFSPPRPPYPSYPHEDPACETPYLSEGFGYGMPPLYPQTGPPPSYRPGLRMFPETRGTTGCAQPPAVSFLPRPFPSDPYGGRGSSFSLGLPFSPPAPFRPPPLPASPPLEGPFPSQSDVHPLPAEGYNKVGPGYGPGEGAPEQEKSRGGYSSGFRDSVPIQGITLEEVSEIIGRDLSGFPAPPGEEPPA
UniProt Q9NX24: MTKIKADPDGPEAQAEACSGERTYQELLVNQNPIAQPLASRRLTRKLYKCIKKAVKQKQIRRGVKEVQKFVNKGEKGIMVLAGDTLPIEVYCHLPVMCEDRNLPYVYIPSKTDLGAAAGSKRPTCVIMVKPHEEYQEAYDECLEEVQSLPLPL
UniProt Q12968: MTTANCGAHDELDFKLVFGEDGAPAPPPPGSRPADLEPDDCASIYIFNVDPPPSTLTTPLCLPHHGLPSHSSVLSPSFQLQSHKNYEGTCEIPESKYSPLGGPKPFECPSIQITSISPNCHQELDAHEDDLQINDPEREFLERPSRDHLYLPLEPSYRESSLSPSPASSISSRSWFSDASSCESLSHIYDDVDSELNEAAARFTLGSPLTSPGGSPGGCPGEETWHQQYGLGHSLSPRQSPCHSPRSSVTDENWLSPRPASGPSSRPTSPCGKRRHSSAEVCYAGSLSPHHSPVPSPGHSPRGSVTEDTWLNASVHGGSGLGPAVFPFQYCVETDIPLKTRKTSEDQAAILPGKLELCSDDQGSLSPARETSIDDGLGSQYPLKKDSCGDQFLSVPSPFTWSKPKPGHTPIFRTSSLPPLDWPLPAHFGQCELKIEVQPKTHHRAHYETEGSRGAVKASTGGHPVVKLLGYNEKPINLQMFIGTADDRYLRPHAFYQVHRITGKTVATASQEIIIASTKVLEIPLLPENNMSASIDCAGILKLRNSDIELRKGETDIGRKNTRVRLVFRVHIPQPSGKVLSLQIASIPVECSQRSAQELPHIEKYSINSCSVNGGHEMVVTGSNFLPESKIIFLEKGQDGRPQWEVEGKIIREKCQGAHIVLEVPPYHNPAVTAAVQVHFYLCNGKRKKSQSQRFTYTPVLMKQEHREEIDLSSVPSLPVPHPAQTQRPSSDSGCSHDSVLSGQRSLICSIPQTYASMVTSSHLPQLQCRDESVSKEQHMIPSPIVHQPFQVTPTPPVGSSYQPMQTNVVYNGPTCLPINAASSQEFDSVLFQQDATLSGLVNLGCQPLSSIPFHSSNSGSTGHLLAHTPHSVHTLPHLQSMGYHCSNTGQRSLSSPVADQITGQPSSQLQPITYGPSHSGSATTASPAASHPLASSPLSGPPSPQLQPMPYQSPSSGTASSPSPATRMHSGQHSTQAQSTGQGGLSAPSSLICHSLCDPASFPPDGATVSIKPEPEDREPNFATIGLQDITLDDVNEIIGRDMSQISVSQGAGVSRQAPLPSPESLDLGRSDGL
UniProt O94916: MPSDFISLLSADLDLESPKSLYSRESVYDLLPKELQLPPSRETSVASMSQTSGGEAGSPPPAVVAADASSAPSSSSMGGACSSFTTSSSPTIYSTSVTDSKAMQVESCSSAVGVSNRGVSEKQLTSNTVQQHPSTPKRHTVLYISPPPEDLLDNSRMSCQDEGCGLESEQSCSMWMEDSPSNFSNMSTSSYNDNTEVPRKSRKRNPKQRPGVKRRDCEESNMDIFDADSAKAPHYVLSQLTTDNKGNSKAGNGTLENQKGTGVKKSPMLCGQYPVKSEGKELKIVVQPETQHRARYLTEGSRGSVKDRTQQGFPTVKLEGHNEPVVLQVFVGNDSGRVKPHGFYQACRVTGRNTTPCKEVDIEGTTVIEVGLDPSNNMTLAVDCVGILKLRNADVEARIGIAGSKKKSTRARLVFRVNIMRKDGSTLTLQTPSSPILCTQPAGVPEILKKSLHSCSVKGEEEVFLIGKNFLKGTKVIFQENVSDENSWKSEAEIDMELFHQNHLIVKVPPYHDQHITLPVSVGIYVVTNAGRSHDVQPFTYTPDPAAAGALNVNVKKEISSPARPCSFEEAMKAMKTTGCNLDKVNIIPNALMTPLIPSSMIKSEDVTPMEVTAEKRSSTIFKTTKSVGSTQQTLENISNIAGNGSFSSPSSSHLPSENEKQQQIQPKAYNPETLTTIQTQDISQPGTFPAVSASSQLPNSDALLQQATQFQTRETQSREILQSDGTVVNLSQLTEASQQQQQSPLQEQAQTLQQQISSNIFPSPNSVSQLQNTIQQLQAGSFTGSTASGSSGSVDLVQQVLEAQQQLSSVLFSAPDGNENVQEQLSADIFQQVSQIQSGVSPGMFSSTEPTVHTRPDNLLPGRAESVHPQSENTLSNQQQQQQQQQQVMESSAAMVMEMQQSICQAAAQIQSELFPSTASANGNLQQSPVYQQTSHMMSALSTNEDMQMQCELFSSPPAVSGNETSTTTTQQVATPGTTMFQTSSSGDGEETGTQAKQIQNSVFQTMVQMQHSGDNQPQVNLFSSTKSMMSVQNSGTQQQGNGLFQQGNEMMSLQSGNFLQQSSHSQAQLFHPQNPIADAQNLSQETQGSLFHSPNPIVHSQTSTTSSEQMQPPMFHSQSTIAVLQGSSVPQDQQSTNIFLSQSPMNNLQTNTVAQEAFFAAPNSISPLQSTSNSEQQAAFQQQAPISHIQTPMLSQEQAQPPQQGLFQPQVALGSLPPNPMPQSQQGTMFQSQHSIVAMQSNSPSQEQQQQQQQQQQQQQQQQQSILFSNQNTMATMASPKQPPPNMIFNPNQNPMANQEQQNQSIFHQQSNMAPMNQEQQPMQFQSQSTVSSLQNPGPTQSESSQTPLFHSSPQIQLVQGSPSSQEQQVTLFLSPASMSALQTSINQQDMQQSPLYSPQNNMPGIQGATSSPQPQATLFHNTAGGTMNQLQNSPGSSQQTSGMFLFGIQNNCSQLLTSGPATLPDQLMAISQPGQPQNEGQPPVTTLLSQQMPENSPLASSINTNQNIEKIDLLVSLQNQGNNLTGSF
UniProt O75251, whole entry, looked up: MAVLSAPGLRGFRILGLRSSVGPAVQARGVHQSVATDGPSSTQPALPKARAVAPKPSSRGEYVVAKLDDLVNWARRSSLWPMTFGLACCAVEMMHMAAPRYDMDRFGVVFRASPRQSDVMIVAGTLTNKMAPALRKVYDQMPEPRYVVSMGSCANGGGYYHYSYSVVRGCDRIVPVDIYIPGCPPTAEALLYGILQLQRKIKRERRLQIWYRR
UniProt Q12986: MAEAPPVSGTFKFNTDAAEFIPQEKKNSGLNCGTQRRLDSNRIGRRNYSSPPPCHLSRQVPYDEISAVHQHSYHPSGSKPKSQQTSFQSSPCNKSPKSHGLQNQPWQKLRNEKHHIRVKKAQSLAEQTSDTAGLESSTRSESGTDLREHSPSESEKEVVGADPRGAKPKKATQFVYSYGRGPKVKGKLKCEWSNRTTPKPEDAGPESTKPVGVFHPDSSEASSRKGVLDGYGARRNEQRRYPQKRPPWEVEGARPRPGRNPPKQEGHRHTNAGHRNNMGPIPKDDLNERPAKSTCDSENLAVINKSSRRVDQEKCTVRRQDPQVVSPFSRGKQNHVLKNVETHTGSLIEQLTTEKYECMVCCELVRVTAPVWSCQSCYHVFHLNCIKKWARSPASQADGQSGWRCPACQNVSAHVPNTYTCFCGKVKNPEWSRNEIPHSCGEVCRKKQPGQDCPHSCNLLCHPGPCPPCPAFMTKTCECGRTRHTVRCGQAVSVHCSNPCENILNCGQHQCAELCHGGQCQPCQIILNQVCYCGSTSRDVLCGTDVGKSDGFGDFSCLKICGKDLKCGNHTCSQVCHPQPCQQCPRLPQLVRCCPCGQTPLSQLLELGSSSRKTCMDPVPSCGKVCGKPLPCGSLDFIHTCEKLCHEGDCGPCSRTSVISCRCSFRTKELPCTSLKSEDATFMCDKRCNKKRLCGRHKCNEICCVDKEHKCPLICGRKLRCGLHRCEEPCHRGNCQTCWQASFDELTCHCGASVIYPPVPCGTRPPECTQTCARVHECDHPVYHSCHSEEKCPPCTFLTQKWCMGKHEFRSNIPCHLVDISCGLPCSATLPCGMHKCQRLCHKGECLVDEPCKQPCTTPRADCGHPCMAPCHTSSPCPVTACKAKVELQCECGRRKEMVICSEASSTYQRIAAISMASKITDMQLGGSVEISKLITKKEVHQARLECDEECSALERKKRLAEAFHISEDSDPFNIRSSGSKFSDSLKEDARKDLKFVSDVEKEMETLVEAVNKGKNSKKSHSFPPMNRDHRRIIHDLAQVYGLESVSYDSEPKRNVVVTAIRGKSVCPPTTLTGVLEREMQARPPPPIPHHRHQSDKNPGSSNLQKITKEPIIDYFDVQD
UniProt O95169, whole entry, looked up: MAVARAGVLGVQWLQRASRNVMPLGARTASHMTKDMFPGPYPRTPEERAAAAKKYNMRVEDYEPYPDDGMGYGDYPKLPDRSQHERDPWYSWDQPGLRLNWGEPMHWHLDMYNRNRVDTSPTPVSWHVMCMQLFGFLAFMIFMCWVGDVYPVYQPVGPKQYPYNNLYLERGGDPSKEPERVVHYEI
UniProt O75323: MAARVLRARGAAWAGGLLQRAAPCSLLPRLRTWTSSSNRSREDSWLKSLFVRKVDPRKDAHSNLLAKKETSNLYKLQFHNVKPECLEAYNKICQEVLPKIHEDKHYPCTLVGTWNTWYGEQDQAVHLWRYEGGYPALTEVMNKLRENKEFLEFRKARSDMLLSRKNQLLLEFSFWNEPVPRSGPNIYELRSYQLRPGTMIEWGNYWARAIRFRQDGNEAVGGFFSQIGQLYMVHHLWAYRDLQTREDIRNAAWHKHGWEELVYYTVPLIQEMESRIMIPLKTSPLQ

compound: Cc1cc(Nc2cc(CN3CCOCC3)c3nc(C)c(Cc4ccc(Cl)cc4F)n3n2)n[nH]1 [gandotinib]; assay: log2 fold change, soluble protein after heating vs DMSO (PISA); higher = thermal stabilisation; K562 lysate, 10 uM; active = over 0.2 and 3.5 SD of the protein, either way, in both replicates (recomputed)
Summary of the method: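 The values are log-two fold changes in thermal stability compared with solvent controls and come from duplicates. They were obtained by TMTpro 16plex LC-MS/MS, with channel sums equalised, on the supernatant after 21,000xg for 90 min. That supernatant came from crude K562 extract at 1 mg/mL protein treated with 10 μM compound for 30 min, heated for 3 min across 48°C-58°C, pooled and brought to 0.5% NP-40 at 4°C.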

log2 fold change, inactive:
NIPSNAP3A (UniProt Q9UFN0) -0.197
NEDD8 (UniProt Q15843) -0.062
NDUFAF4 (UniProt Q9P032) -0.037
NDUFV1 (UniProt P49821) 0.028
NEU1 (UniProt Q99519) 0.001
NDRG2 (UniProt Q9UN36) -0.01
NDUFAB1 (UniProt O14561) 0.009
NIFK (UniProt Q9BYG3) 0
NFU1 (UniProt Q9UMS0) -0.044
NDC80 (UniProt O14777) -0.121
NEDD1 isoform 3 (UniProt Q8NHV4) 0.011
NIP7 (UniProt Q9Y221) 0.003
NIT1 (UniProt Q86X76) 0.038
NDUFA10 (UniProt O95299) -0.103
NFIC (UniProt P08651) 0.237
NLRP2 (UniProt Q9NX02) -0.049
NEDD4 isoform 4 (UniProt P46934) -0.057
NDRG3 (UniProt Q9UGV2) -0.024
NFKBIE (UniProt O00221) -0.02
NEPRO (UniProt Q6NW34) 0.166
NDUFA11 (UniProt Q86Y39) 0.094
NGLY1 (UniProt Q96IV0) -0.053
NFS1 (UniProt Q9Y697) -0.024
NDUFA7 (UniProt O95182) -0.007
NFATC4 isoform 2 (UniProt Q14934) 0.04
NHP2 (UniProt Q9NX24) 0.092
NFATC3 (UniProt Q12968) 0.014
NFAT5 isoform 5 (UniProt O94916) 0.045
NGRN (UniProt Q9NPE2) -0.002
NDUFA6 (UniProt P56556) 0.039
NF2 (UniProt P35240) 0.069
NELFB isoform 2 (UniProt Q8WX92) -0.079
NDUFS7 (UniProt O75251) 0.009
NFX1 (UniProt Q12986) 0.006
NDUFB9 (UniProt Q9Y6M9) -0.082
NDUFB8 (UniProt O95169) -0.025
NF1 (UniProt P21359) -0.108
NIPSNAP2 (UniProt O75323) -0.034
NEK7 (UniProt Q8TDX7) -0.031
NKIRAS2 (UniProt Q9NYR9) -0.157

Two records drawn at random from the list so far, as already listed:
log2 fold change, inactive:
NDUFA6 (UniProt P56556) 0.039
NFAT5 isoform 5 (UniProt O94916) 0.045
